Article PMC6207756
These are yes or no findings as the source states them, for the method shown. In cells and extracts the contact can be indirect. Some binding calls cover weakened binding; strength is not graded here. Tags and fused reporters may be left off the sequences shown.

By UniProt entry, the sequences of proteins in these tests, tags left out.
UniProt Q92968: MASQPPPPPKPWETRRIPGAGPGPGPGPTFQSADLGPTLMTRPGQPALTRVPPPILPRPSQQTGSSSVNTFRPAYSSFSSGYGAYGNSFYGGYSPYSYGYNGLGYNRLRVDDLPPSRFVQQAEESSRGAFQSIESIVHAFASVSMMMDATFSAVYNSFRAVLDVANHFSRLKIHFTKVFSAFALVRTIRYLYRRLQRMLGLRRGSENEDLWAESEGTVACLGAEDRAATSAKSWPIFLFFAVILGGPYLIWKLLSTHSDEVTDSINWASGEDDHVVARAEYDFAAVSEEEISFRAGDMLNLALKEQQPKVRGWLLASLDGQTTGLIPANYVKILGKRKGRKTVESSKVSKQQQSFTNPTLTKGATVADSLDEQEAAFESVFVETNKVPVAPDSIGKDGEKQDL
UniProt O75381: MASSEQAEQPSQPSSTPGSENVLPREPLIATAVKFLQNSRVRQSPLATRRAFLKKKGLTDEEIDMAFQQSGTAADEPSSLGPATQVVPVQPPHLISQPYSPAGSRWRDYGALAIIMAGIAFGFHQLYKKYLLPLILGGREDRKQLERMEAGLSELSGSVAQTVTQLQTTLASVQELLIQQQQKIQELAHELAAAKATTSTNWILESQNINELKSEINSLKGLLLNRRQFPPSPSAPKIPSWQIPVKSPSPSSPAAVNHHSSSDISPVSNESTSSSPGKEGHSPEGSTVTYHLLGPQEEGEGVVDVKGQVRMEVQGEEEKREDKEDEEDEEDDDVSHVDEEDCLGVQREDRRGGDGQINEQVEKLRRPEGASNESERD

Molecular target: T1, ^35S-PEX26-myc (human) (UniProt Q7Z412)
T1 sequence: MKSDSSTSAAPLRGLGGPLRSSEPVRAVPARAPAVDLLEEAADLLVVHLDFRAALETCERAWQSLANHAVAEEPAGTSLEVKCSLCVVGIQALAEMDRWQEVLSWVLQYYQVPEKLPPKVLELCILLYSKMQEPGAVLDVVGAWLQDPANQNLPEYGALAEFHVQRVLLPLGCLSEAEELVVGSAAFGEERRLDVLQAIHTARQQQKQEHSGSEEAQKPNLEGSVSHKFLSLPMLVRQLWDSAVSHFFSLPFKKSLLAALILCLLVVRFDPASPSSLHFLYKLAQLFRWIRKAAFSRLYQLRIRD
Experiment: pull-down; magnetic myc-Trap beads; in vitro synthesised 35S-PEX26-myc/35S-PEX19 as bait (nanograms) with in vitro synthesised 35S-labelled preys in buffer C (20 mM HEPES, 150 mM NaCl, 20% glycerol, pH 7.4, 0.02% Tween 20) with 2 mM ATP and 4 mM MgCl2; eluted with myc-peptide; autoradiography

Row | Substance | binding
1 | ^35S-PEX13 (from UniProt Q92968 1-403) | binds weakly
2 | ^35S-PEX14 (from UniProt O75381 1-377) | binds
